Assay results published in article PMC7819943, “Rice protein-binding microarrays: a tool to detect cis-acting elements near promoter regions in rice”.
The other results are listed elsewhere or left out.

target: T1, OsSMF1 (Oryza sativa, UniProt Q6ZLB0 1-436); assay: protein-binding microarray (RPBM); PBS, 2% BSA, 51.3 ng/ul salmon testes DNA, 50 uM zinc acetate, 200 nM TF, 25 C, 1 h; high values mean tight binding; details: protein: recombinant; tags: N-terminal polyhistidine and DsRed monomer fusion (pET32a); chain copies: 2; label: CyDye5-dUTP incorporated in the synthesized complementary strand; 3' TTTTT single-stranded linker to array surface; dsDNA, one strand shown
T1 sequence: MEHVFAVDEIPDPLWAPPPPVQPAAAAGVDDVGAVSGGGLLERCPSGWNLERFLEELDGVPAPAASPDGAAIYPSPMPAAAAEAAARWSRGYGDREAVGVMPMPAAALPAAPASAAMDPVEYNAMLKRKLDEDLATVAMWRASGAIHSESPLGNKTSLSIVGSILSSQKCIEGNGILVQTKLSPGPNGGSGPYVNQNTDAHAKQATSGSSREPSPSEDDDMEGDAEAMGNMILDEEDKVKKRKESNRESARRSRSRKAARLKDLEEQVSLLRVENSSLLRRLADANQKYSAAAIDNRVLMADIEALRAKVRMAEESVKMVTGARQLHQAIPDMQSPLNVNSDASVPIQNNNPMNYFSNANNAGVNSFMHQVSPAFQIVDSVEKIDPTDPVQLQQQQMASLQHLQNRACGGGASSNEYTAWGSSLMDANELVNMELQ
Outline: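 The binding signal for each feature is its fluorescence intensity in arbitrary units. An Axon 4000B scanner was used to read a custom Agilent array that had been made double-stranded with Cy5-dUTP primer extension, blocked with 2% BSA, incubated at 25 °C for 1 h with 200 nM protein in PBS, 2% BSA, salmon testes DNA and 50 µM zinc acetate, and washed. The protein was an N-terminal polyhistidine–DsRed transcription factor fusion from E. coli BL21-CodonPlus, purified on Ni–NTA.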

| Sequence | binding signal |
| --- | --- |
| GGGATAAAATTGCCACGTAAGCGCCACCTTAACACTATGTCGGAGTCACCTAGTGCAG | 34100 fluorescence intensity (a.u.) |
| CCATCCCTCCCTCCTTGAAAATGCCAGCTCATTCCAATACCGGAGTCACCTAGTGCAG | 6880 fluorescence intensity (a.u.) |
| CGTTGAAAACGAGTACTACGTGTTTGATGAATCGCCTGCCCGGAGTCACCTAGTGCAG | 3230 fluorescence intensity (a.u.) |
| CGTGACGGGCGACGACACTAACAGCGACACGTTAGCCGGACGGAGTCACCTAGTGCAG | 4230 fluorescence intensity (a.u.) |
| TACCATTGTGCTATGGGAAAAGTACACGCAAGGTCCCTCACGGAGTCACCTAGTGCAG | 5760 fluorescence intensity (a.u.) |
| ACACCACCTCACACTTGCTCACCTAGACCATGTTCCTACTCGGAGTCACCTAGTGCAG | 3740 fluorescence intensity (a.u.) |
| AAACCCAATCCAGTTAGGAATAGAACATTAGATATCCAACCGGAGTCACCTAGTGCAG | 3940 fluorescence intensity (a.u.) |
| TTGTTCCAACGCTGTGCCATGTAATATTGCATTTGAATCACGGAGTCACCTAGTGCAG | 3780 fluorescence intensity (a.u.) |
| CTCACTCATCCTAATCCAGCATCAGTCCCAGCTCGATCTCCGGAGTCACCTAGTGCAG | 3850 fluorescence intensity (a.u.) |
| CAGTGTACATATATACACACACTGACTCACTGAGAATCTCCGGAGTCACCTAGTGCAG | 4650 fluorescence intensity (a.u.) |
| CCAGCTGGCGTGCGCGTCAGCTAAACTGCTGGCGCGTACGCGGAGTCACCTAGTGCAG | 4680 fluorescence intensity (a.u.) |
| ATCGTCGTCGCCGCCGCCTCCCATGTCGTTGCTGTCGCCGCGGAGTCACCTAGTGCAG | 3240 fluorescence intensity (a.u.) |
| CTAGATATCCCTTGTTTGTGTGTATGATGTATGCACTCCACGGAGTCACCTAGTGCAG | 3990 fluorescence intensity (a.u.) |
| GTGCTTATTTGATGTGGCATTTGGGCCTTGGTTTAACCGTCGGAGTCACCTAGTGCAG | 4430 fluorescence intensity (a.u.) |
| CCATCAAGAGAAGCTCTACCTCGGCCCGTCCTCGCCCGCCCGGAGTCACCTAGTGCAG | 34900 fluorescence intensity (a.u.) |
| TAGGCTAGCTTGTCAACGTCACCGACGCACGCAATTACTTCGGAGTCACCTAGTGCAG | 3340 fluorescence intensity (a.u.) |
| TTTTATCTGTATGGGCACGACACGTACGTCCACGGTCCACCGGAGTCACCTAGTGCAG | 7000 fluorescence intensity (a.u.) |
| AAGAGAAAATTCAAGAAATATCATTACCAAAGTCCAAGAACGGAGTCACCTAGTGCAG | 52800 fluorescence intensity (a.u.) |
| ACGCCGTGACGGTGTATGTAGGCCGACTGGTCCACGTACGCGGAGTCACCTAGTGCAG | 8090 fluorescence intensity (a.u.) |
| CACGTTTCCTTCTCCAGTTTCCCACACACACTCACCCCTGCGGAGTCACCTAGTGCAG | 3500 fluorescence intensity (a.u.) |
| ATGCCCTCTCCAACCTCCACTCCGTCACATGCTCCGGATCCGGAGTCACCTAGTGCAG | 4630 fluorescence intensity (a.u.) |

| Sequence | binding signal |
| --- | --- |
| ACATGGGCCCATACTCCCTGCACGGGAGCAAACTGGATATCGGAGTCACCTAGTGCAG | 3270 fluorescence intensity (a.u.) |
| CGGAGACTGTGCCACGTGTCCTCCTCCTGCCACGCGTACCCGGAGTCACCTAGTGCAG | 27200 fluorescence intensity (a.u.) |
| GGAAGCTAATTATAATCCGACTTAACACCTCTACACGTCACGGAGTCACCTAGTGCAG | 7420 fluorescence intensity (a.u.) |
| TGCTAGATACCTCTTCATCTGTACACACGCCCTGCCAAATCGGAGTCACCTAGTGCAG | 3290 fluorescence intensity (a.u.) |
| GCACCGAACCAAATCCCCATCGCGCCGCGGCGGTGGCGAGCGGAGTCACCTAGTGCAG | 28500 fluorescence intensity (a.u.) |
| CGCGTCGCCCCTTCTCTCGTCACCGCGCCACCGCATCGCCCGGAGTCACCTAGTGCAG | 5180 fluorescence intensity (a.u.) |
| GATGGTGAATTTTGCTGCTGTCAAGTGATTGCTCCATTCACGGAGTCACCTAGTGCAG | 3290 fluorescence intensity (a.u.) |
| CTGCATATTGTTCATCTGGCGAGCCACGTCGATTGTTACACGGAGTCACCTAGTGCAG | 6580 fluorescence intensity (a.u.) |
| GCCACCACGCCGAGAGCCCATCTTGTAGTCATCTCTCGCTCGGAGTCACCTAGTGCAG | 26700 fluorescence intensity (a.u.) |
| CGTTCCGGCTCCGATAGCAACGTGACCGTACGGGATAAGACGGAGTCACCTAGTGCAG | 3190 fluorescence intensity (a.u.) |
| TACAATTTGTTGCGAGATCCACCTCAACCTACAGGCTACACGGAGTCACCTAGTGCAG | 3490 fluorescence intensity (a.u.) |
| ATAATCACACTCAATCTCAGGTTCTTGCTCCACGTACTCCCGGAGTCACCTAGTGCAG | 7140 fluorescence intensity (a.u.) |
| ACGGCGACAGCGTGGAGCTCCACGACGGCAGCGACGTCGGCGGAGTCACCTAGTGCAG | 3590 fluorescence intensity (a.u.) |
| CGCCGCCGCCGCCGCCGTCCAAGATGGACTGCTTCTTGTCCGGAGTCACCTAGTGCAG | 3420 fluorescence intensity (a.u.) |
| CCGATGTGGGTCCCACACCGAGTCAGCGCACGTCGGACAACGGAGTCACCTAGTGCAG | 3380 fluorescence intensity (a.u.) |
| AACCGTGACTCTCTGCCCACCTGGCCCCACCTGTCATCTCCGGAGTCACCTAGTGCAG | 4080 fluorescence intensity (a.u.) |
| TACTGCGACGAGTGTAGTGTTGATGTGGATGTAACTGTAACGGAGTCACCTAGTGCAG | 6290 fluorescence intensity (a.u.) |
| AACGGGGCCTCGTAGCAACAGCTCTGACGCACGTGACCTCCGGAGTCACCTAGTGCAG | 5400 fluorescence intensity (a.u.) |
| GGTAGATATCTTATTGACACGACATAATTGACACGTGAAACGGAGTCACCTAGTGCAG | 4970 fluorescence intensity (a.u.) |
| CGCCATCAGTAGTCAGAGATGCATATCAGCCCATTGATTTCGGAGTCACCTAGTGCAG | 3270 fluorescence intensity (a.u.) |
| TGAACAGACAGTCAGATTTGCAATATATTCAACCATGCCACGGAGTCACCTAGTGCAG | 3410 fluorescence intensity (a.u.) |

Exported in CSV form: part of the list above
Sequence,binding signal
CGCCGCCGCCGCCGCCGTCCAAGATGGACTGCTTCTTGTCCGGAGTCACCTAGTGCAG,3420 fluorescence intensity (a.u.)
CCGATGTGGGTCCCACACCGAGTCAGCGCACGTCGGACAACGGAGTCACCTAGTGCAG,3380 fluorescence intensity (a.u.)
AACCGTGACTCTCTGCCCACCTGGCCCCACCTGTCATCTCCGGAGTCACCTAGTGCAG,4080 fluorescence intensity (a.u.)
TACTGCGACGAGTGTAGTGTTGATGTGGATGTAACTGTAACGGAGTCACCTAGTGCAG,6290 fluorescence intensity (a.u.)
AACGGGGCCTCGTAGCAACAGCTCTGACGCACGTGACCTCCGGAGTCACCTAGTGCAG,5400 fluorescence intensity (a.u.)
GGTAGATATCTTATTGACACGACATAATTGACACGTGAAACGGAGTCACCTAGTGCAG,4970 fluorescence intensity (a.u.)
CGCCATCAGTAGTCAGAGATGCATATCAGCCCATTGATTTCGGAGTCACCTAGTGCAG,3270 fluorescence intensity (a.u.)
TGAACAGACAGTCAGATTTGCAATATATTCAACCATGCCACGGAGTCACCTAGTGCAG,3410 fluorescence intensity (a.u.)
